# According to PubChem BioAssay AID504467 (National Center for Advancing Translational Sciences (NCATS), 2011):
# Screen size: about 330,000 compounds; about 7,700 (2.3%) were called active. The shares of active, inactive and inconclusive entries below differ from those in the screen. The call rests on the fitted dose curve; in most records, active means well fitted inhibition curve with a large enough effect; inconclusive means small, poorly fitted or top-dose-only effect, or effect the other way; inactive means flat fitted curve, though single readings scatter. Where the call is inconclusive, the potency comes from a doubtful curve fit.
# Experiment: qHTS screen for small molecules that inhibit ELG1-dependent DNA repair in human embryonic kidney (HEK293T) cells expressing luciferase-tagged ELG1; further: nearly all actives have a fitted effect of over 55% in size
# Details: HEK293T ELG1-luciferase reporter, luminescence, 16 h, DNA damage induced by 5-fluorouridine; series mostly up to 46.1 µM
# Procedure, shortened: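 Luminescence from the luciferase reporter, measured 30 min after ONE-Glo reagent at room temperature, was the read-out. Beforehand, 2,000 cells per well were exposed for 16 hr at 37 °C to 5-fluorouridine together with compound or vehicle.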
# Potency means the concentration at half of the fitted maximal effect.
row,SMILES,Potency
1,O=C(NCC(c1ccco1)N1CCCC1)c1cc2ccccc2s1 (stereo not drawn),inactive
2,COc1ccc(NC(=S)N2CCC(NC(=O)c3ccc(OC)cc3)CC2)cc1,"inconclusive: 18.3 µM [inhibitor, single point]"
3,O=C(N1CCCC1)N1CCN(S(=O)(=O)c2ccccc2)CC1,inactive
4,O=C(CCc1ccc(S(=O)(=O)NCCc2ccccc2)cc1)Nc1ccc2c(c1)OCCO2,active: 13 µM
5,COC(=O)c1cc(COc2ccc3oc(C)c(C(=O)OC(C)C)c3c2)c(C)o1,inactive
6,O=C(Cc1ccc(Cl)cc1)NCC(=O)N1CCN(Cc2ccccc2)CC1,"inconclusive: 23.1 µM [inhibitor, single point]"
7,CCNc1nc(NCC)nc(SCCOC(=O)Nc2ccccc2)n1,"inconclusive: 29.1 µM [inhibitor, single point]"
8,CSc1ccc(C(=O)C2CCCN(Cc3cccn3-c3cccnc3)C2)cc1 (stereo not drawn),"inconclusive: 20.6 µM [inhibitor, single point]"
9,CC(=O)c1ccc(NC(=O)C2CCCNC2=O)cc1 (stereo not drawn),"inconclusive: 29.1 µM [activator, partial curve, poor fit]"
10,CC(=O)NC12CC3CC(C1)CC(C(=O)OCC(=O)c1cc(C)n(C)c1C)(C3)C2,"inconclusive: 2.59 µM [activator, partial curve]"
11,O=C(/C=C/c1cc(Br)ccc1O)c1ccco1,"inconclusive: 29.1 µM [activator, single point]"
12,CCCc1[nH]nc2c1C(c1ccc(Br)s1)C(C#N)=C(N)O2 (stereo not drawn),"inconclusive: 9.2 µM [activator, partial curve]"
13,CS(=O)(=O)/C(C#N)=C/c1c(-c2ccccc2)nc2n1CCS2,inactive
14,CC(C)(C)c1nc(CN2CCCCC2)cc(CN2CCCCC2)c1O,"inconclusive: 20.6 µM [activator, partial curve]"
15,COc1ccc2nc(N/C(N)=N/S(C)(=O)=O)nc(C)c2c1,"inconclusive: 18.3 µM [activator, partial curve]"
16,CCNc1nc(N)nc(-c2cc(Cl)ccc2O)n1,"inconclusive: 1.46 µM [activator, partial curve]"
17,c1cc2cc(-c3c(-c4ccc5c(c4)OCO5)noc3-c3ccsc3)ccc2[nH]1,"inconclusive: 25.9 µM [activator, single point]"
18,CCn1c(=O)cc(OCC(=O)N2CCCC2)c2ccccc21,"inconclusive: 18.4 µM [activator, single point]"
19,O=C(O)c1cccc(-n2cc(-c3cccc(C(F)(F)F)c3)cn2)c1,"inconclusive: 2.31 µM [activator, full curve]"
20,O=C(ONC1=NCCCCC1)c1ccc([N+](=O)[O-])cc1,inactive
21,CC(C)SCc1cc(N2CCCC2)nc(-c2ccccc2)n1,inactive
22,N#CCOc1coc(CN2CCN(c3ccccc3)CC2)cc1=O,"inconclusive: 0.0058 µM [inhibitor, full curve, poor fit]"
23,CCOC(=O)c1c(NC(=O)c2cc3n(n2)C(C(F)(F)F)CC(c2ccccc2)N3)sc(C)c1C (stereo not drawn),"inconclusive: 29.1 µM [activator, single point]"
24,N#C/C(=C\c1ccc(-c2ccc(F)cc2)o1)C(=O)Nc1nc(-c2cccs2)cs1,"inconclusive: 58 µM [inhibitor, partial curve, poor fit]"
25,Cc1cc(-c2nnc(SCC(=O)Nc3ccccn3)o2)no1,"inconclusive: 23.1 µM [activator, single point]"

row,SMILES,Potency
1,COc1cc(/C=N/NC(=O)c2cccc([N+](=O)[O-])c2)ccc1OCc1ccc(C)cc1,"inconclusive: 6.51 µM [activator, partial curve]"
2,Cc1ccc2nc(NC(=O)Cn3cc4c(n3)CCCCC4)sc2c1,"inconclusive: 29.1 µM [activator, single point]"
3,CN(C)c1ccc(NC(=S)NCC2CCCO2)cc1 (stereo not drawn),"inconclusive: 23.1 µM [activator, partial curve]"
4,Fc1ccc2c(c1)C1OCCCC1C(c1ccccc1)N2 (stereo not drawn),inactive
5,COc1ccc2c(c1OC)C(=O)N1N=C(c3ccc(Br)cc3)CC21 (stereo not drawn),"inconclusive: 29.1 µM [inhibitor, single point]"
6,Cc1ccc(S(=O)(=O)NC(Cc2ccccc2)C(=O)O)cc1C (stereo not drawn),inactive
7,COc1ccc(OC)c(S(=O)(=O)N2CCCCCC2)c1,inactive
8,COC(=O)C1=CN(Cc2cccs2)C=C(C(=O)OC)C1c1cccc(O)c1,"inconclusive: 16.4 µM [inhibitor, single point]"
9,COc1ccc(C(=O)Nc2nnc(CC(=O)N/N=C/c3ccc(O)cc3O)s2)cc1,"inconclusive: 25.9 µM [activator, single point]"
10,O=c1ccc(Oc2nc(N3CCOCC3)nc(N3CCOCC3)n2)nn1-c1ccccc1,active: 13 µM
11,CC(=O)c1cc(C(=O)N2CCc3c([nH]c4ccccc34)C2CC(C)C)[nH]n1 (stereo not drawn),"inconclusive: 29.1 µM [inhibitor, single point]"
12,CN(C)c1ccc(N2C(=NC(=O)CCC3CCCC3)SC3CS(=O)(=O)CC32)cc1 (stereo not drawn),inactive
13,COc1ccc(NC(=O)CCCC2CCCCC2)c(OC)c1,"inconclusive: 20.6 µM [activator, partial curve]"
14,Cc1ccc(-c2ccc(/C=N/NC(N)=S)o2)cc1,"inconclusive: 16.4 µM [activator, single point]"
15,COCCn1c(C)cc(C(=O)COC(=O)c2ccc(Cl)c(S(N)(=O)=O)c2)c1C,"inconclusive: 0.411 µM [activator, full curve]"
16,O=C(CSc1ccc([N+](=O)[O-])cc1)NNC(=O)c1ccccc1F,inactive
17,O=C(Nc1ccccc1F)c1ccn[nH]1,"inconclusive: 13 µM [activator, partial curve]"
18,CCOC(=O)C1CCN(C(=O)Nc2cccc(Cl)c2)CC1,inactive
19,CCOC(=O)CCc1c(C)nc2c(c(C)nn2-c2ccc(C)cc2)c1C,"inconclusive: 32.6 µM [inhibitor, single point]"
20,CCN(CC)c1ncnc2c1[nH]c1ccccc12,"inconclusive: 18.4 µM [inhibitor, single point]"
21,O=C1C2C3C=CC(CC3)C2C(=O)N1/N=C/c1ccco1 (stereo not drawn),"inconclusive: 18.3 µM [activator, single point]"
22,COc1cccc(NC(=O)C2CCCN(S(=O)(=O)c3cccc4nsnc34)C2)c1 (stereo not drawn),"inconclusive: 16.4 µM [inhibitor, single point]"
23,Nc1cc(Cl)ccc1Oc1ccc(Cl)cc1,"inconclusive: 17.8 µM [activator, single point]"
24,Cc1c(Cl)ccc2c(C(=O)NCCCn3nccc3C)cc(-c3ccccn3)nc12,active: 18.3 µM
25,COc1c(C(=O)Nc2ccc(CN3CCOCC3)cc2)cc2ccccc2c1Br,"inconclusive: 2.91 µM [inhibitor, partial curve, poor fit]"

row,SMILES,Potency
1,COc1cc(OC)cc(-c2c(-c3ccsc3)c3cc(Br)ccc3n2C)c1,inactive
2,COc1cc(-c2cc(C(=O)Nc3ccc(N4CCOCC4)cc3)c3ccccc3n2)cc(OC)c1OC,active: 8.2 µM
3,CN=C(Nc1cccc(S(=O)(=O)N2CCOCC2)c1)c1ccccc1,inactive
4,CC(=O)N1CCN(c2ccc(NCc3ccc(C)cc3)cc2)CC1,"inconclusive: 18.4 µM [inhibitor, partial curve]"
5,CCC1CCCCN1C(=S)NC(=O)c1cc(Br)ccc1Cl (stereo not drawn),inactive
6,Nc1c2c(nc3sc4c(c13)CCCCC4)CCCCC2,"inconclusive: 2.06 µM [activator, full curve]"
7,O=C(Nc1ccccc1F)c1ccc(COc2ccc(Cl)cc2Cl)o1,inactive
8,CCOC(=O)c1c(-c2ccccc2)nnn1-c1nc(OCC)nc(N2CCCCC2)n1,"inconclusive: 14.6 µM [inhibitor, partial curve]"
9,COc1cccc(N2C(=O)C3CCCN3C2c2ccc(N(C)C)cc2)c1 (stereo not drawn),"inconclusive: 11.6 µM [activator, partial curve]"
10,COc1ccc(N(C(=O)/C=C/C(=O)Nc2cc(C)on2)C(C(=O)NC2CCCC2)c2ccccc2C)cc1 (stereo not drawn),inactive
11,COc1ccc(-c2ccc(C(=O)C3CC3)cc2)cc1,"inconclusive: 5.8 µM [activator, partial curve]"
12,CC(C)OP(=O)(OC(C)C)C1(NS(=O)(=O)c2ccc(Cl)cc2)C=C(Cl)C(=O)C(Cl)=C1,inactive
13,COc1ccc(Cl)c2sc(N(CCN(C)C)C(=O)c3ccc4c(c3)OCCO4)nc12,inactive
14,O=C(CSc1nc2ncc(Cl)cc2[nH]1)NCC(=O)Nc1ccc(F)c(F)c1F,inactive
15,Cc1c(Cl)cccc1NC(=O)N1CCCN(c2nc(-c3ccccc3)ns2)CC1,inactive
16,CC(C)(C)C1CCC(=NNc2ncc(C(F)(F)F)cc2Cl)CC1 (stereo not drawn),inactive
17,Cc1ccc(C)c(-n2cc(CN3CCN(C(=O)c4ncn[nH]4)CC3)c(-c3ccccc3)n2)c1,"inconclusive: 29.1 µM [inhibitor, single point]"
18,C/C(=N/NC(=O)c1ccc(Cl)s1)c1cccnc1,inactive
19,O=C(NCc1nc2ccccc2[nH]1)c1ccccc1F,"inconclusive: 13 µM [activator, partial curve, poor fit]"
20,CC(C)(C)NC(=O)COc1coc(CN2CCN(Cc3ccccc3)CC2)cc1=O,inactive
21,O=C(CSc1ccc(-c2cccs2)nn1)N1CCCCCC1,"inconclusive: 14.6 µM [activator, single point]"
22,CCCCC1=CC2=CC(=O)C(C)(OC(=O)CC)C(=O)C2=CN1CCc1c[nH]c2ccccc12 (stereo not drawn),inactive
23,Cc1ccc(C(=O)N2N=C(c3cccc(NS(C)(=O)=O)c3)CC2c2cccs2)cc1 (stereo not drawn),"inconclusive: 29.1 µM [inhibitor, single point]"

# A draw from above in order of number of heavy atoms, low to high.
row,SMILES,Potency
18,C/C(=N/NC(=O)c1ccc(Cl)s1)c1cccnc1,inactive
11,COc1ccc(-c2ccc(C(=O)C3CC3)cc2)cc1,"inconclusive: 5.8 µM [activator, partial curve]"
6,Nc1c2c(nc3sc4c(c13)CCCCC4)CCCCC2,"inconclusive: 2.06 µM [activator, full curve]"
5,CCC1CCCCN1C(=S)NC(=O)c1cc(Br)ccc1Cl (stereo not drawn),inactive
21,O=C(CSc1ccc(-c2cccs2)nn1)N1CCCCCC1,"inconclusive: 14.6 µM [activator, single point]"
16,CC(C)(C)C1CCC(=NNc2ncc(C(F)(F)F)cc2Cl)CC1 (stereo not drawn),inactive
4,CC(=O)N1CCN(c2ccc(NCc3ccc(C)cc3)cc2)CC1,"inconclusive: 18.4 µM [inhibitor, partial curve]"
7,O=C(Nc1ccccc1F)c1ccc(COc2ccc(Cl)cc2Cl)o1,inactive
1,COc1cc(OC)cc(-c2c(-c3ccsc3)c3cc(Br)ccc3n2C)c1,inactive
14,O=C(CSc1nc2ncc(Cl)cc2[nH]1)NCC(=O)Nc1ccc(F)c(F)c1F,inactive
15,Cc1c(Cl)cccc1NC(=O)N1CCCN(c2nc(-c3ccccc3)ns2)CC1,inactive
24,Cc1c(Cl)ccc2c(C(=O)NCCCn3nccc3C)cc(-c3ccccn3)nc12,active: 18.3 µM
8,CCOC(=O)c1c(-c2ccccc2)nnn1-c1nc(OCC)nc(N2CCCCC2)n1,"inconclusive: 14.6 µM [inhibitor, partial curve]"
17,Cc1ccc(C)c(-n2cc(CN3CCN(C(=O)c4ncn[nH]4)CC3)c(-c3ccccc3)n2)c1,"inconclusive: 29.1 µM [inhibitor, single point]"
2,COc1cc(-c2cc(C(=O)Nc3ccc(N4CCOCC4)cc3)c3ccccc3n2)cc(OC)c1OC,active: 8.2 µM
10,COc1ccc(N(C(=O)/C=C/C(=O)Nc2cc(C)on2)C(C(=O)NC2CCCC2)c2ccccc2C)cc1 (stereo not drawn),inactive

# Molecules from the list above that have a COOH group, in the order listed:
row,SMILES,Potency
19,O=C(O)c1cccc(-n2cc(-c3cccc(C(F)(F)F)c3)cn2)c1,"inconclusive: 2.31 µM [activator, full curve]"
6,Cc1ccc(S(=O)(=O)NC(Cc2ccccc2)C(=O)O)cc1C (stereo not drawn),inactive
